Values quoted from earlier work as cited in patent US20080125456A1, “Injection of Tacrolimus” (Chong Kun Dang Pharmaceutical Corporation, priority 2004, published 2008).

In the case of `C=CC[C@@H]1/C=C(\C)C[C@H](C)C[C@H](OC)[C@H]2O[C@@](O)(C(=O)C(=O)N3CCCC[C@H]3C(=O)O[C@H](/C(C)=C/[C@@H]3CC[C@@H](O)[C@H](OC)C3)[C@H](C)[C@@H](O)CC1=O)[C@H](C)C[C@@H]2OC` [Tacrolimus, 17-allyl-1,14-dihydroxy-12-[2-(4-hydroxy-3-methoxycyclohexyl)-1-methylvinyl]-23,2 5-dimethoxy-13,19,21,27-tetramethyl-11,28-dioxy-4-azatricyclo[22.3. 1.0.^4.9]octacos-1 8-ene-2,3,10,16-tetraone], the “Solubility in an organic solvent” value (organic solvent (for example, methanol, ethanol or acetone)) is listed as “well dissolved” and the Solubility in water (water) is listed as “practically insoluble”.
